Laboratory results from publication PMC3384617.
These are yes or no findings as the source states them, for the method shown. In cells and extracts the contact can be indirect. Some binding calls cover weakened binding; strength is not graded here.

Amino acid sequences for entries named in this document (tags omitted).
UniProt O95600: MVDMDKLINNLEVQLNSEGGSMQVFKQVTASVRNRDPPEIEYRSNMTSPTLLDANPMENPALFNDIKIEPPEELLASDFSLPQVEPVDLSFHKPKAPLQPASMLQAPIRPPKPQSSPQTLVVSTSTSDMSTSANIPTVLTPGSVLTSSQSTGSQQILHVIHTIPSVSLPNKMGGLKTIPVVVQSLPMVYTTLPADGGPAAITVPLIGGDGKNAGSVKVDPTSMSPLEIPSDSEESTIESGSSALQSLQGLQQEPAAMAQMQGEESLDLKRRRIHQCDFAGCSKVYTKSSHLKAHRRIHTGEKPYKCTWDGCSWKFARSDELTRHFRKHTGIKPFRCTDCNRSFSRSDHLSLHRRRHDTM
UniProt Q9NQB0: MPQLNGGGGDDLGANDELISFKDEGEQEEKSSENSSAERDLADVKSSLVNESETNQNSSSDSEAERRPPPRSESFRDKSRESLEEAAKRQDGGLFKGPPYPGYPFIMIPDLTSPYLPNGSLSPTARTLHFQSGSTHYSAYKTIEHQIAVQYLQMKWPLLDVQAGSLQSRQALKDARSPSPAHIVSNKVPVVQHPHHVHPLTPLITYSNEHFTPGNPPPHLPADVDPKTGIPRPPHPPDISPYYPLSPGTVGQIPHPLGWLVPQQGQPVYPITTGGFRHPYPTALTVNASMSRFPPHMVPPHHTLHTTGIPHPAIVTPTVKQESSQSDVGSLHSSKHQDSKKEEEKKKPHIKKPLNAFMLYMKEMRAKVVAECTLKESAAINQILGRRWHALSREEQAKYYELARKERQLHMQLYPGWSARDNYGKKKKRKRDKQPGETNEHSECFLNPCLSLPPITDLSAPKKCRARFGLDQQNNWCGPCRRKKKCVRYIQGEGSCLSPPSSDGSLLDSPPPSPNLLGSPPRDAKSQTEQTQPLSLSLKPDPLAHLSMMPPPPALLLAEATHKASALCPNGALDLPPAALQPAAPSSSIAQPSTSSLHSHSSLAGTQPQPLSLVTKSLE
UniProt P35222: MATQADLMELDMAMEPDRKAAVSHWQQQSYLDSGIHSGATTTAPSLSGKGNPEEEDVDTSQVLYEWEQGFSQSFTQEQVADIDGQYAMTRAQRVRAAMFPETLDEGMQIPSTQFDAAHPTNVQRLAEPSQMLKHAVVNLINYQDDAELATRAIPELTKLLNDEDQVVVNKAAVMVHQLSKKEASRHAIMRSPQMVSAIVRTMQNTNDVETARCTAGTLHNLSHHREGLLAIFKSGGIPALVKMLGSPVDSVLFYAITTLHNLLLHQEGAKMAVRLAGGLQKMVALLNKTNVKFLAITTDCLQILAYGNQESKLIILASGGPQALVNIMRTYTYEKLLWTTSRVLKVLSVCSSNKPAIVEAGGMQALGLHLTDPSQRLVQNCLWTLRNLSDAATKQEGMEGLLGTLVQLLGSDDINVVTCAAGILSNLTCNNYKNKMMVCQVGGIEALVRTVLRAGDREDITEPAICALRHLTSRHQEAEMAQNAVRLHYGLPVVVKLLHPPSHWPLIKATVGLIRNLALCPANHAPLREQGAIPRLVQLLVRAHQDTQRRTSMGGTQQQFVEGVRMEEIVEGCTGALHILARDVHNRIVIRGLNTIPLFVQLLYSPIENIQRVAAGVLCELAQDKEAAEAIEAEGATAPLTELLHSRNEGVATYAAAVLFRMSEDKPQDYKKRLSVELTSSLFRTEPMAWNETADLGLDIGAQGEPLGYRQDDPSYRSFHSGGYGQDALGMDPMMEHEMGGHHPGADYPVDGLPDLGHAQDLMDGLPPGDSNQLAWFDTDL

Target: Krüppel-like factor 8 (KLF8) (human (endogenous in HepG2)) (UniProt O95600)
Experiment: co-IP; KLF8 immunoprecipitated (rIgG as negative control antibody) from lysates of HepG2 cells treated with Wnt3a conditioned medium; antibody on Protein A-agarose, 4°C overnight, washed with radioimmunoprecipitation assay lysis buffer (150 mM NaCl, 0.5% NP-40); blots for β-catenin, TCF4 and KLF8

Substance	binding
T-cell factor 4 (TCF4) (from UniProt Q9NQB0 1-619)	binds
β-catenin (from UniProt P35222 1-781)	binds
